No constants are given. Whether binding was seen depends on the method and setting. Some binding calls cover weakened binding; strength is not graded here. Tags and fused reporters may be left off the sequences shown.
T1: MBP-Rif2-his (S. cerevisiae) (UniProt Q06208)
T1 sequence: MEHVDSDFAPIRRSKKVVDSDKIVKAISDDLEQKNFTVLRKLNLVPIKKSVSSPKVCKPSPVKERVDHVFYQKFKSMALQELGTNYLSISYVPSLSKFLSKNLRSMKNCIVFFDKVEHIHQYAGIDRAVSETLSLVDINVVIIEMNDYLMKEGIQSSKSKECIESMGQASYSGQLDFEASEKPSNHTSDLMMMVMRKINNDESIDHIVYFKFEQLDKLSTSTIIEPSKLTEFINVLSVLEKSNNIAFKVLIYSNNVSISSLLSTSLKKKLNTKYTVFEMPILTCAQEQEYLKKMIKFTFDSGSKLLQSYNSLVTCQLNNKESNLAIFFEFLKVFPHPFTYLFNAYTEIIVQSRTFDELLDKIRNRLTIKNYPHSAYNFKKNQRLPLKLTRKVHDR

T2: His-tagged Mre11 (S. cerevisiae) (UniProt P32829)
T2 sequence: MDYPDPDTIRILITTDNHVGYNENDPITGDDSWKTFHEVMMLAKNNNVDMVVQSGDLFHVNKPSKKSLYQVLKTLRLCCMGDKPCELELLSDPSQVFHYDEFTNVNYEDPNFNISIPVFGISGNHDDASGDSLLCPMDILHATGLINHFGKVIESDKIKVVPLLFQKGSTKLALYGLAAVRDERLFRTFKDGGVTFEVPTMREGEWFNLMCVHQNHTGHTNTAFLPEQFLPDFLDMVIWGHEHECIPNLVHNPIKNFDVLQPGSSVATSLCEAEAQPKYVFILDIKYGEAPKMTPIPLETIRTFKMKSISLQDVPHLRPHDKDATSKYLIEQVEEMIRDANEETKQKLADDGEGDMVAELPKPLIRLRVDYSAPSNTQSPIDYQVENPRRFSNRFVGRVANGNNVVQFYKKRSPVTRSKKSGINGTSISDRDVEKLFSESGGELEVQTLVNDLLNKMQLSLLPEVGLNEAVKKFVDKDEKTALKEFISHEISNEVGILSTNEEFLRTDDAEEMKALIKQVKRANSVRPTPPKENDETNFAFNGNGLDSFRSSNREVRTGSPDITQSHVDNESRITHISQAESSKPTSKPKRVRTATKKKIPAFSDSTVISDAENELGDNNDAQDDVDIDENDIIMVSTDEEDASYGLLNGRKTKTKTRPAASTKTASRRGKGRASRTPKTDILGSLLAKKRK

B1: untagged Rad50 (protein, UniProt P12753 1-1312)
chain: MSAIYKLSIQGIRSFDSNDRETIEFGKPLTLIVGMNGSGKTTIIECLKYATTGDLPPNSKGGVFIHDPKITGEKDIRAQVKLAFTSANGLNMIVTRNIQLLMKKTTTTFKTLEGQLVAINNSGDRSTLSTRSLELDAQVPLYLGVPKAILEYVIFCHQEDSLWPLSEPSNLKKKFDEIFQAMKFTKALDNLKSIKKDMSVDIKLLKQSVEHLKLDKDRSKAMKLNIHQLQTKIDQYNEEVSEIESQLNEITEKSDKLFKSNQDFQKILSKVENLKNTKLSISDQVKRLSNSIDILDLSKPDLQNLLANFSKVLMDKNNQLRDLETDISSLKDRQSSLQSLSNSLIRRQGELEAGKETYEKNRNHLSSLKEAFQHKFQGLSNIENSDMAQVNHEMSQFKAFISQDLTDTIDQFAKDIQLKETNLSDLIKSITVDSQNLEYNKKDRSKLIHDSEELAEKLKSFKSLSTQDSLNHELENLKTYKEKLQSWESENIIPKLNQKIEEKNNEMIILENQIEKFQDRIMKTNQQADLYAKLGLIKKSINTKLDELQKITEKLQNDSRIRQVFPLTQEFQRADLEMDFQKLFINMQKNIAINNKKMHELDRRYTNALYNLNTIEKDLQDNQKSKEKVIQLLSENLPEDCTIDEYNDVLEETELSYKTALENLKMHQTTLEFNRKALEIAERDSCCYLCSRKFENESFKSKLLQELKTKTDANFEKTLKDTVQNEKEYLHSLRLLEKHIITLNSINEKIDNSQKCLEKAKEETKTSKSKLDELEVDSTKLKDEKELAESEIRPLIEKFTYLEKELKDLENSSKTISEELSIYNTSEDGIQTVDELRDQQRKMNDSLRELRKTISDLQMEKDEKVRENSRMINLIKEKELTVSEIESSLTQKQNIDDSIRSKRENINDIDSRVKELEARIISLKNKKDEAQSVLDKVKNERDIQVRNKQKTVADINRLIDRFQTIYNEVVDFEAKGFDELQTTIKELELNKAQMLELKEQLDLKSNEVNEEKRKLADSNNEEKNLKQNLELIELKSQLQHIESEISRLDVQNAEAERDKYQEESLRLRTRFEKLSSENAGKLGEMKQLQNQIDSLTHQLRTDYKDIEKNYHKEWVELQTRSFVTDDIDVYSKALDSAIMKYHGLKMQDINRIIDELWKRTYSGTDIDTIKIRSDEVSSTVKGKSYNYRVVMYKQDVELDMRGRCSAGQKVLASIIIRLALSETFGANCGVIALDEPTTNLDEENIESLAKSLHNIINMRRHQKNFQLIVITHDEKFLGHMNAAAFTDHFFKVKRDDRQKSQIEWVDINRVTY
B2: untagged Rad50-N18S (protein, UniProt P12753 1-1312)
chain: MSAIYKLSIQGIRSFDSSDRETIEFGKPLTLIVGMNGSGKTTIIECLKYATTGDLPPNSKGGVFIHDPKITGEKDIRAQVKLAFTSANGLNMIVTRNIQLLMKKTTTTFKTLEGQLVAINNSGDRSTLSTRSLELDAQVPLYLGVPKAILEYVIFCHQEDSLWPLSEPSNLKKKFDEIFQAMKFTKALDNLKSIKKDMSVDIKLLKQSVEHLKLDKDRSKAMKLNIHQLQTKIDQYNEEVSEIESQLNEITEKSDKLFKSNQDFQKILSKVENLKNTKLSISDQVKRLSNSIDILDLSKPDLQNLLANFSKVLMDKNNQLRDLETDISSLKDRQSSLQSLSNSLIRRQGELEAGKETYEKNRNHLSSLKEAFQHKFQGLSNIENSDMAQVNHEMSQFKAFISQDLTDTIDQFAKDIQLKETNLSDLIKSITVDSQNLEYNKKDRSKLIHDSEELAEKLKSFKSLSTQDSLNHELENLKTYKEKLQSWESENIIPKLNQKIEEKNNEMIILENQIEKFQDRIMKTNQQADLYAKLGLIKKSINTKLDELQKITEKLQNDSRIRQVFPLTQEFQRADLEMDFQKLFINMQKNIAINNKKMHELDRRYTNALYNLNTIEKDLQDNQKSKEKVIQLLSENLPEDCTIDEYNDVLEETELSYKTALENLKMHQTTLEFNRKALEIAERDSCCYLCSRKFENESFKSKLLQELKTKTDANFEKTLKDTVQNEKEYLHSLRLLEKHIITLNSINEKIDNSQKCLEKAKEETKTSKSKLDELEVDSTKLKDEKELAESEIRPLIEKFTYLEKELKDLENSSKTISEELSIYNTSEDGIQTVDELRDQQRKMNDSLRELRKTISDLQMEKDEKVRENSRMINLIKEKELTVSEIESSLTQKQNIDDSIRSKRENINDIDSRVKELEARIISLKNKKDEAQSVLDKVKNERDIQVRNKQKTVADINRLIDRFQTIYNEVVDFEAKGFDELQTTIKELELNKAQMLELKEQLDLKSNEVNEEKRKLADSNNEEKNLKQNLELIELKSQLQHIESEISRLDVQNAEAERDKYQEESLRLRTRFEKLSSENAGKLGEMKQLQNQIDSLTHQLRTDYKDIEKNYHKEWVELQTRSFVTDDIDVYSKALDSAIMKYHGLKMQDINRIIDELWKRTYSGTDIDTIKIRSDEVSSTVKGKSYNYRVVMYKQDVELDMRGRCSAGQKVLASIIIRLALSETFGANCGVIALDEPTTNLDEENIESLAKSLHNIINMRRHQKNFQLIVITHDEKFLGHMNAAAFTDHFFKVKRDDRQKSQIEWVDINRVTY

Legend:
[1] = target: T1, MBP-Rif2-his (S. cerevisiae); assay: pull-down; MBP-Rif2-his from Sf9 lysate bound to amylose resin, washed with 1 M then 0.1 M NaCl buffer (50 mM Tris-HCl pH 7.5, 0.2% NP40, 2 mM EDTA); recombinant MR variants (1 ug) added, 1 h at 4°C; washed with 0.1 M NaCl buffer; eluted with 20 mM maltose and cleaved with PreScission protease; Ponceau (Rif2) and western blots (anti-Rad50, anti-His); both purified
[2] = target: T2, His-tagged Mre11 (S. cerevisiae); assay: co-purification; His-tagged Mre11 and untagged Rad50 expressed in Sf9 cells; complex purified by NiNTA affinity chromatography, then HiTrap SP HP and HiTrap Q HP ion-exchange chromatography

| Molecule | binding [1] | binding [2] |
| --- | --- | --- |
| Mre11-Rad50-N18S mutant complex (from UniProt P32829 1-692; P12753 1-1312) | binds weakly | – |
| B1 | – | binds |
| B2 | – | binds |

Reference: publication PMC8028314, “Sae2 and Rif2 regulate MRX endonuclease activity at DNA double-strand breaks in opposite manners” (Cell Reports, 2021)
